Where a sequence shows no end group, the ends are not given.
Test: general procedure: Fmoc solid-phase peptide synthesis
Details: whole synthesis

## DGSVVVNKVSELPAGH
  isolated yield: 31%

## GLNVNTLSYGDLAAD
  isolated yield: 23%

## SELPAGHGLNVNLTS
  isolated yield: 34%
